Assay results as given in PubChem BioAssay AID206 (DTP/NCI, 2004).
The list is a part of this screen's results and no random one: its compounds were picked by chemical class. Not every dose and run of a compound is shown. T/C: endpoint of the treated group in % of that of the vehicle group. Schedules are NCI's codes, read here as Q, the interval in days (D) or hours (H), X, the number of doses. Some T/C values carry the count of animals alive at the toxicity check; where neither a count nor a note follows, no animal had died by that day. Some complexes appear as separate parts, the way the source draws them; their charges need not add up. Some doses were run more than once; their values stand side by side, smallest first. Some entries give survivors of the animals treated and no T/C: the source files T/C as zero there, which appears to mark a toxic dose or a test without result, not a measured value. Counts of survivors are from the toxicity check, whose day is not always given; animals may have died later.

System: nude mice, HT29 intrarenal xenograft, tumor weight T/C
Assay: NCI In Vivo Anticancer Drug Screen. Data for tumor model HT29;CX-1 Human Adenocarcinoma (MER+) (intrarenal inoculation) in NU/NU Swiss (nude) mice
Conditions: T/C endpoint: mean tumor weight change, higher T/C = larger tumour
Method: The antitumor activity of compounds was measured in mice bearing transplantable tumors. Survival or tumor size were measured and the results are expressed as the measurement made in the treated group (T) divided by the measurement made in the vehicle treated control group (C). The tumor model used in this assay is HT29;CX-1 Human Adenocarcinoma (MER+) (intrarenal inoculation) in NU/NU Swiss (nude) mice

[1] = dose: 300.0 mg/kg/injection, schedule: Q04DX004 (sc), vehicle: Klucel (hydroxypropylcellulose) (HPC), evaluated on day 15
[2] = dose: 600.0 mg/kg/injection, schedule: Q04DX004 (sc), vehicle: Klucel (hydroxypropylcellulose) (HPC), evaluated on day 15
[3] = dose: 50.0 mg/kg/injection, schedule: Q01DX010 (sc), vehicle: saline with Tween-80, evaluated on day 20
[4] = dose: 100.0 mg/kg/injection, schedule: Q01DX010 (sc), vehicle: saline with Tween-80, evaluated on day 20
[5] = dose: 400.0 mg/kg/injection, schedule: Q01DX010 (sc), vehicle: saline with Tween-80

Question: Which results are given for CC(=O)OC(SC(OC(C)=O)C(Cl)(Cl)Cl)C(Cl)(Cl)Cl (stereo unspecified)?
Answer: T/C (dose: 100.0 mg/kg/injection, schedule: Q01DX010 (sc), vehicle: Klucel (hydroxypropylcellulose) (HPC), evaluated on day 11): 144 % of control [2 of 2 alive on day 11]; T/C (dose: 200.0 mg/kg/injection, schedule: Q01DX010 (sc), vehicle: Klucel (hydroxypropylcellulose) (HPC), evaluated on day 11): 258 % of control; T/C (dose: 400.0 mg/kg/injection, schedule: Q01DX010 (sc), vehicle: Klucel (hydroxypropylcellulose) (HPC), evaluated on day 11): 114 % of control [2 of 2 alive on day 11]; T/C (dose: 800.0 mg/kg/injection, schedule: Q01DX010 (sc), vehicle: Klucel (hydroxypropylcellulose) (HPC), evaluated on day 11): 151 % of control

Question: ClP1(Cl)=NP(Cl)(Cl)=NP(Cl)(Cl)=NP(Cl)(Cl)=N1 was tested. Which T/C [1] did it give?
Answer: The T/C was 97 % of control.

Question: What about the T/C [2] of the same molecule?
Answer: Its T/C is 131 % of control.

Question: And the T/C (dose: 1200.0 mg/kg/injection, schedule: Q04DX004 (sc), vehicle: Klucel (hydroxypropylcellulose) (HPC), evaluated on day 15)?
Answer: Its T/C is 116 % of control.

Question: And the T/C (dose: 2400.0 mg/kg/injection, schedule: Q04DX004 (sc), vehicle: Klucel (hydroxypropylcellulose) (HPC), evaluated on day 15)?
Answer: Its T/C is 87 % of control.

Question: What does the source list for [Au+].[Au+].c1ccc([PH+](c2ccccc2)c2ccccc2)cc1.c1ccc([PH+](c2ccccc2)c2ccccc2)cc1.n1n[n-]c(-c2nnn[n-]2)n1?
Answer: T/C [3]: 65 % of control; T/C [4]: 65 % of control; T/C (dose: 200.0 mg/kg/injection, schedule: Q01DX010 (sc), vehicle: saline with Tween-80, evaluated on day 20): 65 % of control; survivor count [5]: 1 of 3 on day 20

Question: Which results are given for CCCNC(=O)c1ccc(N(CCCl)CCCl)cc1?
Answer: T/C (dose: 75.0 mg/kg/injection, schedule: Q04DX004 (sc), vehicle: Klucel (hydroxypropylcellulose) (HPC), evaluated on day 15): 76 % of control; T/C (dose: 150.0 mg/kg/injection, schedule: Q04DX004 (sc), vehicle: Klucel (hydroxypropylcellulose) (HPC), evaluated on day 15): 51 % of control; T/C [1]: 67 % of control [5 of 6 alive on day 15]; T/C [2]: 72 % of control [5 of 6 alive on day 15]

Question: Which results are given for Nc1cc([As]=O)ccc1O (stereo unspecified)?
Answer: T/C (dose: 12.5 mg/kg/injection, schedule: Q01DX010 (sc), vehicle: saline with Tween-80, evaluated on day 11): 88 % of control; T/C (dose: 50.0 mg/kg/injection, schedule: Q01DX010 (sc), vehicle: saline with Tween-80, evaluated on day 11): 64 % of control [2 of 2 alive on day 11]; survivor count (dose: 100.0 mg/kg/injection, schedule: Q01DX010 (sc), vehicle: saline with Tween-80): 0 of 3 on day 11

Question: For NC(=O)c1[nH]cnc1/N=N\N(CCCl)CCCl, which T/C [3] is on record?
Answer: The T/C was 100 % of control.

Question: What about the T/C [4] of the same molecule?
Answer: Its T/C is 128 % of control.

Question: And the survivor count (dose: 200.0 mg/kg/injection, schedule: Q01DX010 (sc), vehicle: saline with Tween-80)?
Answer: The survivor count was 1 of 3 on day 20.

Question: And the survivor count [5]?
Answer: Its survivor count is 0 of 2 on day 20.

Question: Which results are given for [Au].[C-]#N.[C-]#N?
Answer: T/C (dose: 5.0 mg/kg/injection, schedule: Q04DX004 (sc), vehicle: saline, evaluated on day 15): 2, 75, 132 % of control; T/C (dose: 10.0 mg/kg/injection, schedule: Q04DX004 (sc), vehicle: saline, evaluated on day 15): 29, 69, 120 % of control; T/C (dose: 20.0 mg/kg/injection, schedule: Q04DX004 (sc), vehicle: saline, evaluated on day 15): 7 [5 of 6 alive on day 15] and 47 % of control [5 of 6 alive on day 15]; survivor count (dose: 20.0 mg/kg/injection, schedule: Q04DX004 (sc), vehicle: saline): 2 of 6 on day 15; survivor count (dose: 40.0 mg/kg/injection, schedule: Q04DX004 (sc), vehicle: saline): 0 of 6 on day 15

Question: What does the source list for ClC1CSC1?
Answer: T/C (dose: 150.0 mg/kg/injection, schedule: Q04DX004 (sc), vehicle: saline with Tween-80, evaluated on day 15): 142 % of control; T/C (dose: 300.0 mg/kg/injection, schedule: Q04DX004 (sc), vehicle: saline with Tween-80, evaluated on day 15): 136 % of control; T/C (dose: 600.0 mg/kg/injection, schedule: Q04DX004 (sc), vehicle: saline with Tween-80, evaluated on day 15): 170 % of control; T/C (dose: 1200.0 mg/kg/injection, schedule: Q04DX004 (sc), vehicle: saline with Tween-80, evaluated on day 15): 92 % of control

Question: Which T/C (dose: 300.0 mg/kg/injection, schedule: Q04DX004 (sc), vehicle: suspension in saline, evaluated on day 15) does the source give for Cc1ccc(Sc2ccc([N+](=O)[O-])cc2[N+](=O)[O-])c([N+](=O)[O-])c1 here?
Answer: The T/C was 113 % of control.

Question: What about the T/C (dose: 600.0 mg/kg/injection, schedule: Q04DX004 (sc), vehicle: suspension in saline, evaluated on day 15) of the same molecule?
Answer: Its T/C is 121 % of control.

Question: What about the T/C (dose: 1200.0 mg/kg/injection, schedule: Q04DX004 (sc), vehicle: suspension in saline, evaluated on day 15) of the same molecule?
Answer: Its T/C is 82 % of control.

Question: What about the T/C (dose: 2400.0 mg/kg/injection, schedule: Q04DX004 (sc), vehicle: suspension in saline, evaluated on day 15) of the same molecule?
Answer: The T/C was 96 % of control.
